Laboratory results reported in publication PMC11442585.
No constants are given. Whether binding was seen depends on the method and setting. Some entries that bind do so weakly or less than the wild type. Sequences can lack the tags named with a protein.

Molecular target: T1, linker histone H5 (chicken), P02259
T1 chain: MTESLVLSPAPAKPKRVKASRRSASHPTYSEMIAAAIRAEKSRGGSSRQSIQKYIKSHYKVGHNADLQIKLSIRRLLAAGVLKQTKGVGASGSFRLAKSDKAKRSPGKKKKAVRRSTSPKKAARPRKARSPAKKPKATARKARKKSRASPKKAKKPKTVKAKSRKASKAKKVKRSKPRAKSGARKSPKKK
Assay: cryo-EM structure; H5-chromatin fiber (dodecanucleosome) reconstituted by salt dialysis from 12x 177 bp 601 DNA, histone octamers and an equal molar amount of H5; HE buffer (10 mM HEPES, pH 8.0, 0.1 mM EDTA); fixed with 0.2% glutaraldehyde; 3.6 Å; both purified
Settings: remark: other sources report otherwise

B1: linker histone H5, P02259 1-190 (protein)
chain: T1 chain
- binding: binds
